In US20070004909A1:
These are yes or no findings as the source states them, for the method shown. Some results given as binding are weak or reduced against the parent protein; the word gives no strength.

Sequences of proteins named here, by UniProt entry; tags and fusion partners are left off. Residues count along the entry.
UniProt P31994, residues 43-217: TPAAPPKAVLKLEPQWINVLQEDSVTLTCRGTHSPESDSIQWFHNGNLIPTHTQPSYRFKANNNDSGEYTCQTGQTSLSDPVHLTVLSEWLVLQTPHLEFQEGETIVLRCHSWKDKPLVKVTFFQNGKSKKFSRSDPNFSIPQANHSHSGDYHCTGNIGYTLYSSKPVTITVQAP

How the values were obtained:
[1] = target: sCD32B-Ig (UniProt P31994); assay: sandwich ELISA: sCD32B coated on the plate (figure legend), purified diabody diluted 1:25 to 1:100, HRP-conjugated sCD16A as the probe; OD450
[2] = target: sCD32B-Ig (UniProt P31994); assay: sandwich ELISA: sCD32B-Ig coated, diabody, sCD16A-biotin + streptavidin-HRP
[3] = target: sCD32B-Ig (UniProt P31994); assay: sandwich ELISA: CD32B coated, HRP-conjugated CD16A probe
[4] = target: sCD32B-Ig (UniProt P31994); assay: sandwich ELISA: sCD32B-Ig coated on the plate, diabody titrated, detected with labelled sCD16A; OD450
[5] = target: sCD32B-Ig (UniProt P31994); assay: sandwich ELISA; compared with the CBD of constructs 1 and 2 (summary of Example 6.4)
[6] = target: sCD32B-Ig (UniProt P31994); assay: sandwich ELISA of purified product: CD32B coated, HRP-conjugated CD16A probe; compared with constructs 1 and 2

Measured: binding

B1: h2B6-h3G8 covalent bispecific diabody (CBD) (bispecific antibody)
chain 1: EIVLTQSPDFQSVTPKEKVTFTCRTSQSIGTNIHWYQQKPDQSPKLLIKEVSESISGVPSRFSGSGSGTDFTLTINSLEAEDAATYYCQQSNTWPFTFGGGTKVEIKGGGSGGGGQVTLRESGPALVKPTQTLTLTCTFSGFSLSTSGMGVGWIRQPPGKALEWLAHIWWDDDKRYNPALKSRLTISKDTSKNQVVLTMTNMDPVDTATYYCAQINPAWFAYWGQGTLVTVSSLGGC
chain 2: DIVMTQSPDSLAVSLGERATINCKASQSVDFDGDSFMNWYQQKPGQPPKLLIYTTSNLESGVPDRFSGSGSGTDFTLTISSLQAEDVAVYYCQQSNEDPYTFGQGTKLEIKGGGSGGGGQVQLVQSGAEVKKPGASVKVSCKASGYTFTNYWIHWVRQAPGQGLEWIGVIDPSDTYPNYNKKFKGRVTMTVVVSTSTAYMELRSLRSDDTAVYYCARNGDSDYYSGMDYWGQGTTVTVSSLGGC
binds: [1] | [2] | [3] | [4]

B2: covalent bispecific diabody of constructs 15 and 16 (pMGX0752+pMGX0753) (bispecific antibody)
chain 1: EIVLTQSPDFQSVTPKEKVTFTCRTSQSIGTNIHWYQQKPDQSPKLLIKEVSESISGVPSRFSGSGSGTDFTLTINSLEAEDAATYYCQQSNTWPFTFGGGTKVEIKGGGSGGGGQVTLRESGPALVKPTQTLTLTCTFSGFSLSTSGMGVGWIRQPPGKALEWLAHIWWDDDKRYNPALKSRLTISKDTSKNQVVLTMTNMDPVDTATYYCAQINPAWFAYWGQGTLVTVSSFNRGEC
chain 2: DIVMTQSPDSLAVSLGERATINCKASQSVDFDGDSFMNWYQQKPGQPPKLLIYTTSNLESGVPDRFSGSGSGTDFTLTISSLQAEDVAVYYCQQSNEDPYTFGQGTKLEIKGGGSGGGGQVQLVQSGAEVKKPGASVKVSCKASGYTFTNYWIHWVRQAPGQGLEWIGVIDPSDTYPNYNKKFKGRVTMTVVVSTSTAYMELRSLRSDDTAVYYCARNGDSDYYSGMDYWGQGTTVTVSSVEPKSC
binds: [1] | [5] | [6]
